Reference: the supplement of paper PMC12823440, “Inhibitors supercharge kinase turnover through native proteolytic circuits” (Nature, 2025)
The list shows a part of the results. The calls rarely recur for the same compound in another form.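 In K562 cells expressing nanoluciferase-fused kinases, luminescence was recorded at 4 h intervals between 2 and 18 h, normalized as percent of control with DMSO at 100% and a positive control at 0%. A significant (2 sigma) signal drop marks a time point as decreased. The authors' rule for a hit is not shown and takes in more than the number of time points.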

Chains of the proteins cited; added tags and fusions are not shown. Lines headed by an entry give the natural chain unless they say otherwise; changes in a name come on top.
UniProt Q15208: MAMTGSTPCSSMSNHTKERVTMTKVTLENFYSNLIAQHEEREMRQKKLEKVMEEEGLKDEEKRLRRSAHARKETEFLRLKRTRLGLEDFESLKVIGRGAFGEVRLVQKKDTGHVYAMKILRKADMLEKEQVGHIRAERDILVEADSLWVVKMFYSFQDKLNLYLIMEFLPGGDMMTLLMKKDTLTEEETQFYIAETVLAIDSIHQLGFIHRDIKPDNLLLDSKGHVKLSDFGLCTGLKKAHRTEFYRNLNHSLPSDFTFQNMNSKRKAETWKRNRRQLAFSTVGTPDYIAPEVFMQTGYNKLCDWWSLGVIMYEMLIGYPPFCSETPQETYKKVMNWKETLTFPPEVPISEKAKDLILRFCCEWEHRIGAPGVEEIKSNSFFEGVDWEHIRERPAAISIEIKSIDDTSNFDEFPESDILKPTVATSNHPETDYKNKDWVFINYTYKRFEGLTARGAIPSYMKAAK
UniProt P42680: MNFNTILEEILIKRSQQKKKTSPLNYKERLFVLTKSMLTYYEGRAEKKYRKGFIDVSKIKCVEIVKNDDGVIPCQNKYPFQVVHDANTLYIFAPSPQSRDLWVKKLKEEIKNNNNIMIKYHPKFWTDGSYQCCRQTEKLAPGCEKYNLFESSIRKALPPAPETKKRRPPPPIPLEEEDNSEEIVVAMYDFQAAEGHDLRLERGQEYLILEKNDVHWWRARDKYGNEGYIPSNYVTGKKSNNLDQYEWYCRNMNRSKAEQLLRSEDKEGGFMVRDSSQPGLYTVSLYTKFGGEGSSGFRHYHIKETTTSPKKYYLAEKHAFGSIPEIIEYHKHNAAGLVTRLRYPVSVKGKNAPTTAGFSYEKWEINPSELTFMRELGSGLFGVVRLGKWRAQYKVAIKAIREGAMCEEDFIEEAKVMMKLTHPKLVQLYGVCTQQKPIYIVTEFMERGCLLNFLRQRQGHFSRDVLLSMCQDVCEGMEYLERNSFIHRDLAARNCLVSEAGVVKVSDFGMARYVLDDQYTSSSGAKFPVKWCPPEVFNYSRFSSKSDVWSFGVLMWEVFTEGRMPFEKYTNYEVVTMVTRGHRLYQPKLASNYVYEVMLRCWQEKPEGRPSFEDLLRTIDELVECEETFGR
UniProt P29597: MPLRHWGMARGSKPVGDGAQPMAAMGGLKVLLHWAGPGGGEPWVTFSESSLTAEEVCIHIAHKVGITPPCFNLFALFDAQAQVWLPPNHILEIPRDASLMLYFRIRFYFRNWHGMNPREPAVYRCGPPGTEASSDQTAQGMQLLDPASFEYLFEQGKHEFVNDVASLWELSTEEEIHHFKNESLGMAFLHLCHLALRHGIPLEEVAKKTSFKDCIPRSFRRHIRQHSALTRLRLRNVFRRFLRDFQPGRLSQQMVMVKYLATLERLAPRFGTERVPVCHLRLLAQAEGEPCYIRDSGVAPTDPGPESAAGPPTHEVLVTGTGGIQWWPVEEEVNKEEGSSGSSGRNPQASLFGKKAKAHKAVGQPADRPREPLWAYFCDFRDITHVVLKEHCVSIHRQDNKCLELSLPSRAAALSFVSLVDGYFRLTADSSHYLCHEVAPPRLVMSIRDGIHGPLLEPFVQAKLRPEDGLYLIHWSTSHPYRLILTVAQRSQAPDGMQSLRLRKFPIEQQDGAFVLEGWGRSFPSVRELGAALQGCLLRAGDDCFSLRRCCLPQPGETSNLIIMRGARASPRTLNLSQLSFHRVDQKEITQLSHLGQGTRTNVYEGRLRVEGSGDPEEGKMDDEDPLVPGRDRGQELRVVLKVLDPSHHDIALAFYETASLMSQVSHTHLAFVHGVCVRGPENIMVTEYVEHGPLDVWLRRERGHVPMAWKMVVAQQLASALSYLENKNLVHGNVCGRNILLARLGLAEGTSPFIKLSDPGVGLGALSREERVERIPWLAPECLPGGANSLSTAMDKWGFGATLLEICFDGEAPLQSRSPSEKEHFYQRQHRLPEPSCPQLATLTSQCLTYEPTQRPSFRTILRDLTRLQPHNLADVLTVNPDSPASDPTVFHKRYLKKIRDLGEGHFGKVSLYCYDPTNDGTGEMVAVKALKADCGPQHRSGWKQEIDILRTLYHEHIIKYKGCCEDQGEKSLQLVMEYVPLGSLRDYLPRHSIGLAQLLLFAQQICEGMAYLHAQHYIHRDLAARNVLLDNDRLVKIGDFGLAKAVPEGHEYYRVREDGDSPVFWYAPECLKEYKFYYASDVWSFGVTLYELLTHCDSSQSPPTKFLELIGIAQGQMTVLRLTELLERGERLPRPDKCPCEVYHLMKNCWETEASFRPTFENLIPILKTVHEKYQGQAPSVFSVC
UniProt Q6PHR2: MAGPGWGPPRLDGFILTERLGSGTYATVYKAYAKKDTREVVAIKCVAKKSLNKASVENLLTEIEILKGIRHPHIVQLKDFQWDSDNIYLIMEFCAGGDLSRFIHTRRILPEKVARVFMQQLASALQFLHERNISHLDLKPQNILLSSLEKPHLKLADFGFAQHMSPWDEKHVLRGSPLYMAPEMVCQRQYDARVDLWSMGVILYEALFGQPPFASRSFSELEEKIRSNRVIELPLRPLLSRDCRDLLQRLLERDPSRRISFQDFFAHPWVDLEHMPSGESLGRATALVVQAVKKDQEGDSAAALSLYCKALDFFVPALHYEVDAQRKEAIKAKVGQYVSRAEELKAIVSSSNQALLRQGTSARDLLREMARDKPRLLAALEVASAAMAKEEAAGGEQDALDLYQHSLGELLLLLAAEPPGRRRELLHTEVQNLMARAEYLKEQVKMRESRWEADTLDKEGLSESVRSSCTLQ
UniProt P07947, whole entry, looked up: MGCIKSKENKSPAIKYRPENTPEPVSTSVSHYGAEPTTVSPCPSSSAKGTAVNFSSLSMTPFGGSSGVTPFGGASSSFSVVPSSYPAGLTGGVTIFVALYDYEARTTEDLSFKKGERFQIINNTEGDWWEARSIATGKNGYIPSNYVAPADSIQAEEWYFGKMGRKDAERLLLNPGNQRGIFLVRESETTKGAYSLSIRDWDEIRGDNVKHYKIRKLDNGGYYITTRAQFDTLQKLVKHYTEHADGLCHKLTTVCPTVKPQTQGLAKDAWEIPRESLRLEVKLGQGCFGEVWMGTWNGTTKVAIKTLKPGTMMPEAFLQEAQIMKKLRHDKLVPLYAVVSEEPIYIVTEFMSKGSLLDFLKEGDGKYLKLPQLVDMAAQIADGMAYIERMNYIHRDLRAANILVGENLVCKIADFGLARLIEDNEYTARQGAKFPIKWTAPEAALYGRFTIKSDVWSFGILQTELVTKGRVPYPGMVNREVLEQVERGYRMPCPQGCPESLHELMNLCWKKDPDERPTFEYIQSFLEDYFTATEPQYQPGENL
UniProt P43403: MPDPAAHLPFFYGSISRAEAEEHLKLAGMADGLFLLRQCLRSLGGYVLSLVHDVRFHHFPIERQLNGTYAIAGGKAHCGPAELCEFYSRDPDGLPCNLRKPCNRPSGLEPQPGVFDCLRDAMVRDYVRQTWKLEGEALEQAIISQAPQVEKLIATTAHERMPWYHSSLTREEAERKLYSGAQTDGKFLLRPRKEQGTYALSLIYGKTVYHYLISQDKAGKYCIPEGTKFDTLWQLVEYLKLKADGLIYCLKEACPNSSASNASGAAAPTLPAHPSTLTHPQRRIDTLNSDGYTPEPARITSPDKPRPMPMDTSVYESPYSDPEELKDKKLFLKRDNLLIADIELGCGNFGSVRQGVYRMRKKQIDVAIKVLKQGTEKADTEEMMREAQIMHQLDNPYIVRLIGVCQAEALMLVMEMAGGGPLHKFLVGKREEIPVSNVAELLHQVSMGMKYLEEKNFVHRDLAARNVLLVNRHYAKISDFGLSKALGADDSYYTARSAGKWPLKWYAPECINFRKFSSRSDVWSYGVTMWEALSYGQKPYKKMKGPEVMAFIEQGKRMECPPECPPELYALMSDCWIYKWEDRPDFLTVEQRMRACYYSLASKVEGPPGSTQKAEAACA
UniProt P00519, whole entry: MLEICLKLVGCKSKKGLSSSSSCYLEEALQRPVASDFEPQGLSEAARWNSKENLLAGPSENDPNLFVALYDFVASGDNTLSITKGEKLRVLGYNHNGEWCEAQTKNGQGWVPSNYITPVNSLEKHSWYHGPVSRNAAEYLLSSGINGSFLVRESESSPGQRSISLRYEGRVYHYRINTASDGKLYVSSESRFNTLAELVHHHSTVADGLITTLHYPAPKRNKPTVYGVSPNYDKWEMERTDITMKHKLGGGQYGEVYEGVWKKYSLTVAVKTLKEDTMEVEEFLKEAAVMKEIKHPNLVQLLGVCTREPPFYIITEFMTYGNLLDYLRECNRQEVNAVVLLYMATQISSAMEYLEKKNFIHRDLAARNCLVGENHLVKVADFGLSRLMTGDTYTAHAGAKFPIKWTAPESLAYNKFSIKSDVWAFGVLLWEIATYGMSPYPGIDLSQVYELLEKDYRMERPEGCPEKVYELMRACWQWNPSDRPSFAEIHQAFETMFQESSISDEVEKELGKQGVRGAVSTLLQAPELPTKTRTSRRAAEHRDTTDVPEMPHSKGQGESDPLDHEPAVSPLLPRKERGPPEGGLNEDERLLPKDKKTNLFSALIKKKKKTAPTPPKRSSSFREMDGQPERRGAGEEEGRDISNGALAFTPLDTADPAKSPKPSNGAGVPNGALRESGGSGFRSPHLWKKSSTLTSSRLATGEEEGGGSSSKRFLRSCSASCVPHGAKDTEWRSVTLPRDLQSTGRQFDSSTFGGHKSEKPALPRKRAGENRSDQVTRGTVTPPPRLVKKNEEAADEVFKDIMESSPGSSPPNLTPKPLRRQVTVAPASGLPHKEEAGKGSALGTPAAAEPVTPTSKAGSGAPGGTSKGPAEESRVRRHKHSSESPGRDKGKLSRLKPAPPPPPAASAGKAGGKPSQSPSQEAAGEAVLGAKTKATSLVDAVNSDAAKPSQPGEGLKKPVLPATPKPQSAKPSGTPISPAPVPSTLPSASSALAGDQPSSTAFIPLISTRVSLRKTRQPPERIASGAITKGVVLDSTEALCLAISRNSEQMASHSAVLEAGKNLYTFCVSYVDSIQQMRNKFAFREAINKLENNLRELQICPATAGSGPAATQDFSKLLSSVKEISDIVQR
UniProt P31749: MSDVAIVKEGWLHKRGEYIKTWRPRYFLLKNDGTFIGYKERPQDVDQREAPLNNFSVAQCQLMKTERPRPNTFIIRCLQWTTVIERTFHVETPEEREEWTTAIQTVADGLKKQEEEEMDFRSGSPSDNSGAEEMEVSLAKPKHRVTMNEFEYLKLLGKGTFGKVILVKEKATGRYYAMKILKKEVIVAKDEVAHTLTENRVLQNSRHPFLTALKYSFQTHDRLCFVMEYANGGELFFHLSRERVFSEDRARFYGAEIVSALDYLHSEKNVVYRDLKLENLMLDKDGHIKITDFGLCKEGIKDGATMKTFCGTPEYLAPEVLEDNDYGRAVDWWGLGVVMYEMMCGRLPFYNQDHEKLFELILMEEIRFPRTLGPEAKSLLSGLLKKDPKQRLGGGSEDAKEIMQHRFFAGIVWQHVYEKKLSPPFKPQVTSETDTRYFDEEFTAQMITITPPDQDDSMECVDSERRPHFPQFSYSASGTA

Tests used:
Conditions in all cases: K562; 2-18 h
STK38 = STK38 (UniProt Q15208); assay: kinase-Nluc reporter destabilization hit call (1 = scored as downregulated) (binary); higher = compound decreases kinase abundance
SYK = SYK (UniProt P43405); assay: as above
TEC = TEC (UniProt P42680); assay: as above
TYK2 = TYK2 (UniProt P29597); assay: as above
ULK3 = ULK3 (UniProt Q6PHR2); assay: as above
YES1 = YES1 (UniProt P07947); assay: as above
ZAK = ZAK (UniProt Q9NYL2); assay: as above
ZAP70 = ZAP70 (UniProt P43403); assay: as above
ABL1 = ABL1 (UniProt P00519); assay: number of time points (of 5) at which kinase-Nluc abundance scored as decreased, DMSO-normalised (count); higher = more persistent destabilization
AKT1 = AKT1 (UniProt P31749); assay: as above

Row | SMILES | kinase-Nluc reporter destabilization hit call (STK38) | kinase-Nluc reporter destabilization hit call (SYK) | kinase-Nluc reporter destabilization hit call (TEC) | kinase-Nluc reporter destabilization hit call (TYK2) | kinase-Nluc reporter destabilization hit call (ULK3) | kinase-Nluc reporter destabilization hit call (YES1) | kinase-Nluc reporter destabilization hit call (ZAK) | kinase-Nluc reporter destabilization hit call (ZAP70) | number of time points (ABL1) | number of time points (AKT1)
1 | N#Cc1cn([C@@H]2O[C@H](CO)[C@@H](O)[C@H]2O)c2nc[nH]c(=O)c12 [Jaspamycin] (10 µM) | inactive: 0 | inactive: 0 | inactive: 0 | inactive: 0 | inactive: 0 | inactive: 0 | inactive: 0 | inactive: 0 | 0 | 0
2 | COc1ccc2c(c1)C[C@H](C(=O)Nc1ccc(-c3cn[nH]c3)cc1OCCN(C)C)CO2 [Chroman 1] (10 µM) | inactive: 0 | inactive: 0 | inactive: 0 | inactive: 0 | inactive: 0 | inactive: 0 | inactive: 0 | inactive: 0 | 0 | 0
3 | COC(=O)c1cc2c(OC(C)C)cc(OC(C)C)cc2[nH]1 (2.5 µM) | inactive: 0 | inactive: 0 | inactive: 0 | inactive: 0 | inactive: 0 | inactive: 0 | inactive: 0 | inactive: 0 | 0 | 0
